The results in this text go back to the supplement of paper PMC10727501.

This is one part of the list. This data set is noisy: repeats of one test often differ as much as different tests do.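 Free-swimming zebrafish larvae were scored for O-bend response probability to dark flashes (naive: first five; training: remaining flashes of four 60-flash blocks; test: later 60-flash block) and for turning toward alternating leftward/rightward LED motion (OMR). Six treated larvae were compared with sixty 0.1% DMSO controls; |SSMD|≥2 defined a hit.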

Settings in all cases: 10 µM; pre-incubation: 30-90 min
Assay [1] relates to Danio rerio larvae (5 dpf, TLF). As to the kind of experiment: OMR-Perf (SSMD vs DMSO vehicle); higher = higher than vehicle (e.g. higher dark-flash O-bend response probability, or better optomotor performance).
Assay [2] shares this test system. As to the kind of experiment: Prob-Test (SSMD vs DMSO vehicle); higher = higher than vehicle (e.g. higher dark-flash O-bend response probability, or better optomotor performance).
Assay [3] shares this test system. Nature of the assay: Prob-Naive (SSMD vs DMSO vehicle); higher = higher than vehicle (e.g. higher dark-flash O-bend response probability, or better optomotor performance).
Assay [4] shares this test system. Nature of the assay: Prob-Train (SSMD vs DMSO vehicle); higher = higher than vehicle (e.g. higher dark-flash O-bend response probability, or better optomotor performance).

Turning to `NC(=O)c1cn(Cc2c(F)cccc2F)nn1` [Rufinamide], the OMR-Perf in assay [1] amounted to 0.0693. This compound also gave a Prob-Test in assay [2] of 0.565. Besides, the Prob-Naive in assay [3] was -0.199. The Prob-Train in assay [4] is 0.00271.
For `CCOc1ccc(Cc2cc([C@@H]3O[C@H](CO)[C@@H](O)[C@H](O)[C@@H]3O)ccc2Cl)cc1` [Dapagliflozin], the OMR-Perf in assay [1] turned out to be 0.0842. In assay [2], this compound showed a Prob-Test of 0.415. This compound showed a Prob-Naive in assay [3] of 0.357. Also, in assay [4], the Prob-Train was 0.32.
With `CC(C)C[C@H](NC(=O)CNC(=O)c1cc(Cl)ccc1Cl)B(O)O`, the OMR-Perf in assay [1] is -0.0724. Besides, the Prob-Test in assay [2] turned out to be 0.31. The same compound yielded a Prob-Naive in assay [3] of 0.0184. Besides, the Prob-Train in assay [4] was -0.12.
On the same counts, the results for `O=C([O-])Cc1ccccc1Nc1c(Cl)cccc1Cl.[Na+]` [Diclofenac Sodium] are 0.378, 0.595, 0.421 and 0.0266.
In the case of `Cl.O=C1NCC2(CCN(CCc3ccccc3)CC2)O1` [Fenspiride HCl], the OMR-Perf in assay [1] turned out to be 0.156. In assay [2], the Prob-Test is -0.785. In assay [3], this compound yielded a Prob-Naive of 0.00519. The Prob-Train in assay [4] is -0.889.
Consider `CN(C)C1CCN(C(=O)c2ccc(NC(=O)Nc3ccc(-c4nc(N5CCOCC5)nc(N5CCOCC5)n4)cc3)cc2)CC1`, for which the OMR-Perf in assay [1] was found to be 0.545. In assay [2], the Prob-Test was 0.236. Further, in assay [3], the Prob-Naive is -0.485. Also, in assay [4], the Prob-Train is -0.096.
On the same counts, the results for `Oc1c(Br)cc(Br)c2cccnc12` [Broxyquinoline] are -1.22, -1.24, -0.723 and -1.41.
On the same counts, the results for `Cc1cc(NC(=O)Nc2ccc(N(C)C)cc2)c2cc(F)cc(F)c2n1` are 0.329, -0.639, -0.146 and -0.682.
Turning to `C/C=C/C1=C(C(=O)O)N2C(=O)[C@@H](NC(=O)[C@H](N)c3ccc(O)cc3)[C@H]2SC1.O` [Cefprozil hydrate (Cefzil)], the OMR-Perf in assay [1] was -0.0348. Further, the Prob-Test in assay [2] is -0.347. Moreover, in assay [3], the Prob-Naive came to 0.13. In assay [4], the Prob-Train was -0.109.
On the same counts, the results for `Nc1nc(=O)c2c([nH]1)NCC(CNc1ccc(C(=O)N[C@@H](CCC(=O)[O-])C(=O)[O-])cc1)N2C=O.O.O.O.O.O.[Ca+2]` (some centres not stated) [Leucovorin Calcium] are 0.345, 0.0554, 0.306 and 0.249.
On the same counts, the results for `CC(=O)NCC(=O)O.CC(=O)NCC(=O)O.N=C(N)c1ccc(/N=N/Nc2ccc(C(=N)N)cc2)cc1` [Diminazene Aceturate] are 0.439, 0.586, 0.241 and 0.436.
On the same counts, the results for `O=C([O-])C(O)[C@H](O)[C@@H](O)[C@H](O)[C@H](O)CO.O=C([O-])C(O)[C@H](O)[C@@H](O)[C@H](O)[C@H](O)CO.[Ca+2]` (some centres not stated) [Calcium Gluceptate] are 0.71, 0.248, 0.457 and -0.143.
As for `COC(=O)[C@H](Cc1ccccc1)NC(=O)[C@@H](N)CC(=O)O` [Aspartame], the OMR-Perf in assay [1] is -0.0179. In addition, the Prob-Test in assay [2] was determined as 0.282. Further, the Prob-Naive in assay [3] is -0.286. The compound further showed a Prob-Train in assay [4] of 0.325.
Consider `Cl.NCCc1ccc(O)c(O)c1` [Dopamine HCl], for which, in assay [1], the OMR-Perf was -0.63. Further, the Prob-Test in assay [2] is -0.351. Further, the Prob-Naive in assay [3] came out at 0.028. The Prob-Train in assay [4] is -0.447.
On the same counts, the results for `C[C@]12C=CC(=O)C=C1CC[C@@H]1[C@H]2[C@H](O)C[C@@]2(C)[C@H]1CC[C@@]2(O)C(=O)CO` [Prednisolone] are 0.668, -0.376, -0.0545 and -0.0386.
On the same counts, the results for `Cc1ccc(F)c(NC(=O)Nc2ccc(-c3cccc4[nH]nc(N)c34)cc2)c1` [Linifanib (ABT-869)] are -0.156, 0.0668, -0.115 and -0.0128.
On the same counts, the results for `CCc1c2c(nc3ccc(OC(=O)N4CCC(N5CCCCC5)CC4)cc13)-c1cc3c(c(=O)n1C2)COC(=O)[C@@]3(O)CC` [Irinotecan] are -0.189, -0.195, -0.266 and -0.169.
In the case of `CCN(CC)CCNC(=O)c1c(C)[nH]c(/C=C2\C(=O)Nc3ccc(F)cc32)c1C.O=C(O)C[C@H](O)C(=O)O` [Sunitinib Malate], in assay [1], the OMR-Perf is -0.0969. The Prob-Test in assay [2] is 0.0354. Further, in assay [3], the Prob-Naive was -0.159. For the same compound, in assay [4], the Prob-Train was -0.381.
With `CCc1c(O)cc(O)c(C(=O)c2ccc(OCCN3CCOCC3)c(OC)c2)c1CC(=O)N(CCOC)CCOC`, the OMR-Perf in assay [1] worked out at 0.336. The compound further returned a Prob-Test in assay [2] of 0.059. For the same compound, in assay [3], the Prob-Naive was -0.335. This compound also displayed a Prob-Train in assay [4] of 0.0361.
The compound `Cc1onc(-c2c(Cl)cccc2Cl)c1C(=O)N[C@@H]1C(=O)N2[C@@H](C(=O)[O][Na])C(C)(C)S[C@@H]12.O` [Dicloxacillin Sodium] gave an OMR-Perf in assay [1] of 1.02. Further, the Prob-Test in assay [2] was -0.446. In assay [3], the Prob-Naive was -0.256. Moreover, the Prob-Train in assay [4] is -0.00477.
On the same counts, the results for `O=C1Nc2ccccc2/C1=C1/Nc2ccccc2C1=O` [Indirubin] are -0.0743, 0.649, -0.13 and 0.371.
The compound `Cc1cn([C@H]2O[C@@H](CO)[C@H](O)[C@@H]2F)c(=O)[nH]c1=O` [Clevudine] yielded an OMR-Perf in assay [1] of 0.485. In addition, the Prob-Test in assay [2] stood at 0.465. For the same compound, in assay [3], the Prob-Naive is 0.402. Further, in assay [4], the Prob-Train is 0.528.
In assay [1], `COc1cc(Nc2nc3ccccc3nc2NS(=O)(=O)c2ccc(NC(=O)c3ccc(C)c(OC)c3)cc2)cc(OC)c1` registered an OMR-Perf of 0.679. For the same compound, the Prob-Test in assay [2] is 0.145. In assay [3], the Prob-Naive was -0.0535. For the same compound, the Prob-Train in assay [4] was determined as 0.394.
